Results are given in words; binding and its absence hold for the method and conditions named. Some entries that bind do so weakly or less than the wild type.

The chains behind the UniProt entries cited, without tags or fusion partners.
UniProt P00004: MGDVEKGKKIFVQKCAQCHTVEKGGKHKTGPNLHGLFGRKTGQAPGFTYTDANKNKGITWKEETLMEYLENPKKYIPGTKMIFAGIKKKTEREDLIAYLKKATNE

Test [1] concerns the target T1, Ac-KLVFFAL-CONH2.
T1 sequence (peptide, N-terminal acetyl (on the lysine); C-terminal amide): KLVFFAL
The test can be described thus: co-sedimentation; short nanotubes (sonicated 30 min), Ac-KL 200 uM, exposed urease 15 uM (for dual motors also CytC, 20 uL of 500 uM stock), in water, 1 h incubation, centrifuged 14,000 rpm 30 min 4 C, pellet washed twice; enzyme in the supernatants estimated by Bradford assay; both purified.

The target in test [2] is T1, Ac-KLVFFAL-CONH2. Put plainly: confocal microscopy (CLSM); fluorophore-labelled enzymes on long and sonicated nanotubes; both purified.
Test [3] addresses T1, Ac-KLVFFAL-CONH2. The test can be described thus: TEM; urease bound to long and to sonicated nanotubes; both purified.

As for “Cytochrome C (oxidized) (from UniProt P00004 1-105) (enzyme)”, in the test with Ac-KLVFFAL-CONH2 [1], the binding result is “binds”.

For the substance “FITC labelled CytC (from UniProt P00004 1-105) (enzyme)”, the binding result with Ac-KLVFFAL-CONH2 [2] is given as “binds”.

For the substance “RITC labelled urease (from UniProt P07374 1-840) (enzyme)”, the binding entry with Ac-KLVFFAL-CONH2 [2] is on record as “binds”.

Regarding “urease (from UniProt P07374 1-840) (enzyme)”, the binding result with Ac-KLVFFAL-CONH2 [3] was “binds”.

These data come from article PMC10516904, “Dual enzyme-powered chemotactic cross β amyloid based functional nanomotors” (Nature Communications, 2023).
